{
  "source": "paper PMC8748404",
  "about": "(Angewandte Chemie (International ed. in English), 2021)",
  "key": {"[1]": {"tested_on": "PB1-BD2, PB1-BD4, PB1-BD5, BRD7 and BRD9", "experiment": "concurrent screening against five bromodomain proteins", "assay_type": "binding", "details": "five bromodomain proteins screened concurrently"}, "PB1-BD2/4/5": {"target": "PB1-BD2/4/5", "experiment": "DNA-based ligand displacement assay, IC50 determination of hit compounds", "assay_type": "binding"}},
  "data": [
    {"molecule": "COc1cc2nc(N3CCCC3)nc(NCCCCCN3CCCC3)c2cc1OC", "note": "[UNC-0379]", "values": [
      {"measurement": "selectivity in concurrent screen", "setting": "[1]", "value": "selectivity for PB1-BD2/4/5 over BRD7/9"},
      {"measurement": "binding to respective bromodomains (IC50 determination)", "setting": "PB1-BD2/4/5", "value": "potent binding"}
    ]}
  ]
}
